System: proteins in oral lavage
Assay: Abundance of proteins in human oral lavage (SomaLogic), TABLE 1
Type: in vivo
Details: for Means (Original Scale) High bleeder BL / Means (Original Scale) High bleeder W4 / Means (Original Scale) Low bleeder BL: abundance in oral lavage; for Means (Original Scale) High bleeder BL: high bleeders (gingivitis); for Means (Original Scale) High bleeder BL / Means (Original Scale) Low bleeder BL: baseline; for Means (Original Scale) High bleeder W4 / Fold Change High bleeder W4 vs High bleeder BL: high bleeders; for Means (Original Scale) High bleeder W4: week 4 of investigative products; for Means (Original Scale) Low bleeder BL: low bleeders (healthy); for Fold Change High bleeder BL vs Low bleeder BL / Fold Change High bleeder W4 vs High bleeder BL: oral lavage; for Fold Change High bleeder BL vs Low bleeder BL: high bleeders vs low bleeders at baseline; for Fold Change High bleeder W4 vs High bleeder BL: week 4 of investigative products vs baseline

Molecule | Means (Original Scale) High bleeder BL | Means (Original Scale) High bleeder W4 | Means (Original Scale) Low bleeder BL | Fold Change High bleeder BL vs Low bleeder BL | Fold Change High bleeder W4 vs High bleeder BL
Neutrophil gelatinase-associated lipocalin (protein, UniProt P80188 21-198, looked up) Neutrophil …: QDSTSDLIPAPPLSKVPLQQNFQDNQFQGKWYVVGLAGNAILREDKDPQKMYATIYELKEDKSYNVTSVLFRKKKCDYWIRTFVPGCQPGEFTLGNIKSYPGLTSYLVRVVSTNYNQHAMVFFKKVSQNREYFKITLYGRTKELTSELKENFIRFSKSLGLPENHIVFPVPIDQCIDG | 290631 | 182049 | 209403 | 1.71 | 0.55
NADPH--cytochrome P450 reductase (protein, UniProt P16435 2-677, looked up) NADPH--cytochrome P450 …: GDSHVDTSSTVSEAVAEEVSLFSMTDMILFSLIVGLLTYWFLFRKKKEEVPEFTKIQTLTSSVRESSFVEKMKKTGRNIIVFYGSQTGTAEEFANRLSKDAHRYGMRGMSADPEEYDLADLSSLPEIDNALVVFCMATYGEGDPTDNAQDFYDWLQETDVDLSGVKFAVFGLGNKTYEHFNAMGKYVDKRLEQLGAQRIFELGLGDDDGNLEEDFITWREQFWPAVCEHFGVEATGEESSIRQYELVVHTDIDAAKVYMGEMGRLKSYENQKPPFDAKNPFLAAVTTNRKLNQGTERHLMHLELDISDSKIRYESGDHVAVYPANDSALVNQLGKILGADLDVVMSLNNLDEESNKKHPFPCPTSYRTALTYYLDITNPPRTNVLYELAQYASEPSEQELLRKMASSSGEGKELYLSWVVEARRHILAILQDCPSLRPPIDHLCELLPRLQARYYSIASSSKVHPNSVHICAVVVEYETKAGRINKGVATNWLRAKEPAGENGGRALVPMFVRKSQFRLPFKATTPVIMVGPGTGVAPFIGFIQERAWLRQQGKEVGETLLYYGCRRSDEDYLYREELAQFHRDGALTQLNVAFSREQSHKVYVQHLLKQDREHLWKLIEGGAHIYVCGDARNMARDVQNTFYDIVAELGAMEHAQAVDYIKKLMTKGRYSLDVWS | 1621 | 1355 | 221 | 10.71 | 0.54
Nidogen-1 (protein, UniProt P14543 29-1247, looked up) Nidogen-1: LSRQELFPFGPGQGDLELEDGDDFVSPALELSGALRFYDRSDIDAVYVTTNGIIATSEPPAKESHPGLFPPTFGAVAPFLADLDTTDGLGKVYYREDLSPSITQRAAECVHRGFPEISFQPSSAVVVTWESVAPYQGPSRDPDQKGKRNTFQAVLASSDSSSYAIFLYPEDGLQFHTTFSKKENNQVPAVVAFSQGSVGFLWKSNGAYNIFANDRESVENLAKSSNSGQQGVWVFEIGSPATTNGVVPADVILGTEDGAEYDDEDEDYDLATTRLGLEDVGTTPFSYKALRRGGADTYSVPSVLSPRRAATERPLGPPTERTRSFQLAVETFHQQHPQVIDVDEVEETGVVFSYNTDSRQTCANNRHQCSVHAECRDYATGFCCSCVAGYTGNGRQCVAEGSPQRVNGKVKGRIFVGSSQVPIVFENTDLHSYVVMNHGRSYTAISTIPETVGYSLLPLAPVGGIIGWMFAVEQDGFKNGFSITGGEFTRQAEVTFVGHPGNLVIKQRFSGIDEHGHLTIDTELEGRVPQIPFGSSVHIEPYTELYHYSTSVITSSSTREYTVTEPERDGASPSRIYTYQWRQTITFQECVHDDSRPALPSTQQLSVDSVFVLYNQEEKILRYALSNSIGPVREGSPDALQNPCYIGTHGCDTNAACRPGPRTQFTCECSIGFRGDGRTCYDIDECSEQPSVCGSHTICNNHPGTFRCECVEGYQFSDEGTCVAVVDQRPINYCETGLHNCDIPQRAQCIYTGGSSYTCSCLPGFSGDGQACQDVDECQPSRCHPDAFCYNTPGSFTCQCKPGYQGDGFRCVPGEVEKTRCQHEREHILGAAGATDPQRPIPPGLFVPECDAHGHYAPTQCHGSTGYCWCVDRDGREVEGTRTRPGMTPPCLSTVAPPIHQGPAVPTAVIPLPPGTHLLFAQTGKIERLPLEGNTMRKTEAKAFLHVPAKVIIGLAFDCVDKMVYWTDITEPSIGRASLHGGEPTTIIRQDLGSPEGIAVDHLGRNIFWTDSNLDRIEVAKLDGTQRRVLFETDLVNPRGIVTDSVRGNLYWTDWNRDNPKIETSYMDGTNRRILVQDDLGLPNGLTFDAFSSQLCWVDAGTNRAECLNPSQPSRRKALEGLQYPFAVTSYGKNLYFTDWKMNSVVALDLAISKETDAFQPHKQTRLYGITTALSQCPQGHNYCSVNNGGCTHLCLATPGSRTCRCPDNTLGVDCIEQK | 526 | 329 | 157 | 3.12 | 0.65
Neurexophilin-1 (protein, UniProt P58417 22-271, looked up) Neurexophilin-1: ANLTNGGKSELLKSGSSKSTLKHIWTESSKDLSISRLLSQTFRGKENDTDLDLRYDTPEPYSEQDLWDWLRNSTDLQEPRPRAKRRPIVKTGKFKKMFGWGDFHSNIKTVKLNLLITGKIVDHGNGTFSVYFRHNSTGQGNVSVSLVPPTKIVEFDLAQQTVIDAKDSKSFNCRIEYEKVDKATKNTLCNYDPSKTCYQEQTQSHVSWLCSKPFKVICIYISFYSTDYKLVQKVCPDYNYHSDTPYFPSG | 377 | 224 | 135 | 2.43 | 0.66
NSFL1 cofactor p47 (protein, UniProt Q9UNZ2 1-370, looked up) NSFL1 cofactor p47: MAAERQEALREFVAVTGAEEDRARFFLESAGWDLQIALASFYEDGGDEDIVTISQATPSSVSRGTAPSDNRVTSFRDLIHDQDEDEEEEEGQRFYAGGSERSGQQIVGPPRKKSPNELVDDLFKGAKEHGAVAVERVTKSPGETSKPRPFAGGGYRLGAAPEEESAYVAGEKRQHSSQDVHVVLKLWKSGFSLDNGELRSYQDPSNAQFLESIRRGEVPAELRRLAHGGQVNLDMEDHRDEDFVKPKGAFKAFTGEGQKLGSTAPQVLSTSSPAQQAENEAKASSSILIDESEPTTNIQIRLADGGRLVQKFNHSHRISDIRLFIVDARPAMAATSFILMTTFPNKELADESQTLKEANLLNAVIVQRLT | 1799 | 924 | 570 | 3.16 | 0.57
Natural cytotoxicity triggering receptor 2 (protein, UniProt O95944 22-276, looked up) Natural cytotoxicity …: QSKAQVLQSVAGQTLTVRCQYPPTGSLYEKKGWCKEASALVCIRLVTSSKPRTMAWTSRFTIWDDPDAGFFTVTMTDLREEDSGHYWCRIYRPSDNSVSKSVRFYLVVSPASASTQTSWTPRDLVSSQTQTQSCVPPTAGARQAPESPSTIPVPSQPQNSTLRPGPAAPIALVPVFCGLLVAKSLVLSALLVWWGDIWWKTMMELRSLDTQKATCHLQQVTDLPWTSVSSPVEREILYHTVARTKISDDDDEHTL | 77 | 55 | 45 | 1.66 | 0.76

Reference: patent US20180320217A1, “METHODS FOR SAMPLING AND MEASURING ORAL LAVAGE PROTEINS” (The Procter & Gamble Company, priority 2017, published 2018)
